The source of these data is publication doi:10.1101/2023.10.09.561572.

Protein sequences, listed by entry. Tags and fused reporters are not part of them.
UniProt P84101, whole entry, stated change not applied: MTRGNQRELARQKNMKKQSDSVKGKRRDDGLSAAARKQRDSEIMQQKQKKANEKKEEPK

The target of this data set is SERF2 all conserved lysines of both interfaces mutated (Homo sapiens) (UniProt P84101). The experiment in a line: EMSA. The settings on record: 5 uM each, further reduced; recombinant protein; residues 1-59; label: 6-FAM (FP), unlabelled in NMR/EMSA. (In general: Mobility shift assays separate free from complexed probe on a gel.)

Construct, isoform or probe ends are uncertain for at least one entry. Weaker means in comparison with the reference protein, sequence or condition of that experiment.

As to UAGGGUUAGGGUUAGGGUUAGGG [TERRA23 rG4], the binding result is on record as “binds more weakly”.
